The supplement of paper PMC4635364
Where a name gives a salt, the structure may show the parent alone. The list shows a part of the results. Repeats in this data set agree poorly, so a single value says little.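 Cells: ReNCell VM human fetal ventral-midbrain neural progenitors, differentiated mitogen-free. Blinded raters compared doublecortin-stained (early neurons) or tyrosine hydroxylase-stained (dopaminergic neurons) images with untreated wells, where 0 means no change. After repeats and both raters were averaged, compounds scoring 2 or above became hits for retesting.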

How the values were obtained:
ReNCell VM [1] = test: neuronal differentiation score (DCX+ cell fraction vs untreated, manual image score) (score (-3 to 3)); higher = more neuronal differentiation; details: 2 uM, 2 weeks
ReNCell VM [2] = test: dopaminergic neuron differentiation score (TH+ cell fraction vs untreated, manual image score) (score (0 to 3)); higher = more TH+ dopaminergic neuron differentiation; details: 2 uM, 4 weeks, BDNF 10 ng/ml + GDNF 10 ng/ml

**Q.** Which results are given for `COC1=C[C@@H](C)[C@@H]2C[C@H]3OC(=O)C[C@H]4C(C)=C(OC)C(=O)[C@H]([C@@]2(C)C1=O)[C@@]34C`?
**A.** neuronal differentiation score (ReNCell VM [1]; library: Spectrum): inactive: 0; dopaminergic neuron differentiation score (ReNCell VM [2]; library: Spectrum): inactive: 0

**Q.** With `O=c1cccc2ccc(O)c(O)c2c1O` as the compound, how does the neuronal differentiation score (ReNCell VM [1]; library: Spectrum) read?
**A.** inactive: 0

**Q.** What about the “dopaminergic neuron differentiation score” value (ReNCell VM [2]; library: Spectrum) of the same compound?
**A.** inactive: 0

**Q.** Which results are given for `CCCN(CCC)CCc1cccc2c1CC(=O)N2` [Ropinirole HCl]?
**A.** neuronal differentiation score (ReNCell VM [1]; library: Prestwick): inactive: 0; dopaminergic neuron differentiation score (ReNCell VM [2]; library: Prestwick): inactive: 1

**Q.** With `COc1ccc2c(c1)c(CC(=O)O)c(C)n2C(=O)c1ccc(Cl)cc1` as the compound, how does the neuronal differentiation score (ReNCell VM [1]; library: Spectrum) read?
**A.** inactive: 0

**Q.** And the “dopaminergic neuron differentiation score” value (ReNCell VM [2]; library: Spectrum)?
**A.** inactive: 0

**Q.** Which results are given for `N#CC(C#N)=C(N)/C(C#N)=C/c1cc(O)c(O)c(O)c1` [Tyrphostin 51]?
**A.** neuronal differentiation score (ReNCell VM [1]; library: LOPAC): inactive: 0; dopaminergic neuron differentiation score (ReNCell VM [2]; library: LOPAC): inactive: 0

**Q.** Which results are given for `Clc1ccc2c(c1)CCc1cccnc1C2=C1CCNCC1` [Desloratadine]?
**A.** neuronal differentiation score (ReNCell VM [1]; library: Prestwick): inactive: 0; dopaminergic neuron differentiation score (ReNCell VM [2]; library: Prestwick): inactive: 0

**Q.** For `CN1CCN(CC/C=C2/c3ccccc3Sc3ccc(S(=O)(=O)N(C)C)cc32)CC1` [Thiothixene hydrochloride], which neuronal differentiation score (ReNCell VM [1]; library: LOPAC) is on record?
**A.** inactive: 0

**Q.** And the “dopaminergic neuron differentiation score” value (ReNCell VM [2]; library: LOPAC)?
**A.** inactive: 0

**Q.** How did the neuronal differentiation score (ReNCell VM [1]; library: LOPAC) turn out when `O=c1c2ccccc2[nH]c(=S)n1CCN1CCC(=C(c2ccc(F)cc2)c2ccc(F)cc2)CC1` [Diacylglycerol Kinase Inhibitor II] was run?
**A.** inactive: 0

**Q.** What about the “dopaminergic neuron differentiation score” value (ReNCell VM [2]; library: LOPAC) of the same compound?
**A.** inactive: 0

**Q.** Which results are given for `Cc1c(N)c(=O)n(-c2ccccc2)n1C`?
**A.** neuronal differentiation score (ReNCell VM [1]; library: Spectrum): inactive: 0; dopaminergic neuron differentiation score (ReNCell VM [2]; library: Spectrum): inactive: 0

**Q.** Which results are given for `COc1ccc2c(=O)c(-c3ccc(O)cc3)coc2c1`?
**A.** neuronal differentiation score (ReNCell VM [1]; library: Spectrum): inactive: 0; dopaminergic neuron differentiation score (ReNCell VM [2]; library: Spectrum): inactive: 0

**Q.** Which results are given for `C[C@@H]1C[C@H]2[C@@H]3C[C@H](F)C4=CC(=O)C=C[C@]4(C)[C@@]3(F)[C@@H](O)C[C@]2(C)[C@@]1(O)C(=O)CO`?
**A.** neuronal differentiation score (ReNCell VM [1]; library: Spectrum): inactive: 0; dopaminergic neuron differentiation score (ReNCell VM [2]; library: Spectrum): inactive: 0

**Q.** What does the source list for `CC1(C)CC[C@]2(C(=O)O)CC[C@]3(C)C(=CC[C@@H]4[C@@]5(C)CC[C@H](O)C(C)(C)[C@@H]5[C@H](O)C[C@]43C)[C@@H]2C1` [sumaresinolic acid]?
**A.** neuronal differentiation score (ReNCell VM [1]; library: Natural): inactive: 0; dopaminergic neuron differentiation score (ReNCell VM [2]; library: Natural): inactive: 0

**Q.** Which results are given for `OCc1cccnc1`?
**A.** neuronal differentiation score (ReNCell VM [1]; library: Spectrum): inactive: 0; dopaminergic neuron differentiation score (ReNCell VM [2]; library: Spectrum): inactive: 0

**Q.** `CCCn1c(=O)c(C)cn2nc(N)nc12` was tested. Which neuronal differentiation score (ReNCell VM [1]; library: Tocriscreen) did it give?
**A.** inactive: 0

**Q.** And the “dopaminergic neuron differentiation score” value (ReNCell VM [2]; library: Tocriscreen)?
**A.** inactive: 0

**Q.** What does the source list for `OC(CCN1CCCC1)(c1ccccc1)C1CCCCC1` (centres undefined) [Procyclidine hydrochloride]?
**A.** neuronal differentiation score (ReNCell VM [1]; library: Prestwick): inactive: 0; dopaminergic neuron differentiation score (ReNCell VM [2]; library: Prestwick): inactive: 0

**Q.** What does the source list for `COc1ccc(-c2coc3c(O)c(O)c(OC)cc3c2=O)cc1`?
**A.** neuronal differentiation score (ReNCell VM [1]; library: Spectrum): inactive: 0; dopaminergic neuron differentiation score (ReNCell VM [2]; library: Spectrum): inactive: 0

**Q.** `N[C@@H](CSS(=O)(=O)O)C(=O)O` [S-Sulfo-L-cysteine sodium salt] was tested. Which neuronal differentiation score (ReNCell VM [1]; library: Tocriscreen) did it give?
**A.** inactive: 0

**Q.** What about the “dopaminergic neuron differentiation score” value (ReNCell VM [2]; library: Tocriscreen) of the same compound?
**A.** active: 3

**Q.** For `C#C[C@]1(OC(C)=O)CC[C@H]2[C@@H]3CCC4=CC(=NO)CC[C@@H]4[C@H]3CC[C@@]21CC` (mixture of isomers), which neuronal differentiation score (ReNCell VM [1]; library: Spectrum) is on record?
**A.** inactive: 1

**Q.** What about the “dopaminergic neuron differentiation score” value (ReNCell VM [2]; library: Spectrum) of the same compound?
**A.** inactive: 0

**Q.** Which neuronal differentiation score (ReNCell VM [1]; library: Prestwick) does the source give for `C=C1c2c(Cl)ccc(O)c2C(=O)C2=C(O)[C@]3(O)C(=O)C(C(N)=O)=C(O)[C@@H](N(C)C)[C@@H]3[C@@H](O)[C@H]12.O=C(O)c1cc(S(=O)(=O)O)ccc1O` [Meclocycline sulfosalicylate] here?
**A.** inactive: 0

**Q.** And the “dopaminergic neuron differentiation score” value (ReNCell VM [2]; library: Prestwick)?
**A.** inactive: 0

**Q.** What does the source list for `COc1cc(OC)c(-c2c(OC)cc(OC)cc2OC)c(OC)c1`?
**A.** neuronal differentiation score (ReNCell VM [1]; library: Spectrum): inactive: 0; dopaminergic neuron differentiation score (ReNCell VM [2]; library: Spectrum): inactive: 0

**Q.** `S=C(S)OC1CC2CC1C1CCCC21` [D-609 potassium] was tested. Which neuronal differentiation score (ReNCell VM [1]; library: LOPAC) did it give?
**A.** inactive: 0

**Q.** And the “dopaminergic neuron differentiation score” value (ReNCell VM [2]; library: LOPAC)?
**A.** inactive: 0

**Q.** What does the source list for `COc1ccc(C(=O)NCc2ccc(OCCN(C)C)cc2)cc1OC`?
**A.** neuronal differentiation score (ReNCell VM [1]; library: Spectrum): inactive: 0; dopaminergic neuron differentiation score (ReNCell VM [2]; library: Spectrum): inactive: 0

**Q.** With `CCN1CCCC1CNC(=O)c1cc(S(=O)(=O)CC)c(N)cc1OC` (centres undefined) as the compound, how does the neuronal differentiation score (ReNCell VM [1]; library: Spectrum) read?
**A.** inactive: 0

**Q.** What about the “dopaminergic neuron differentiation score” value (ReNCell VM [2]; library: Spectrum) of the same compound?
**A.** inactive: 0

**Q.** With `CO[C@H]1/C=C/O[C@@]2(C)Oc3c(C)c(O)c4c(O)c(c(/C=N/N5CCN(C6CCCC6)CC5)c(O)c4c3C2=O)NC(=O)/C(C)=C\C=C\[C@H](C)[C@H](O)[C@@H](C)[C@@H](O)[C@@H](C)[C@H](OC(C)=O)[C@@H]1C` [Rifapentine] as the compound, how does the neuronal differentiation score (ReNCell VM [1]; library: Prestwick) read?
**A.** inactive: 0

**Q.** And the “dopaminergic neuron differentiation score” value (ReNCell VM [2]; library: Prestwick)?
**A.** inactive: 0

**Q.** What does the source list for `Cc1cccc(C)c1NC(=O)C[N+](C)(C)C`?
**A.** neuronal differentiation score (ReNCell VM [1]; library: Tocriscreen): inactive: 0; dopaminergic neuron differentiation score (ReNCell VM [2]; library: Tocriscreen): inactive: 0

**Q.** With `CC(CCC(=O)O)[C@H]1CCC2C3C[C@H](O)[C@@H]4C[C@H](O)CC[C@]4(C)C3CC[C@@]21C` (stereo partly drawn) [alpha-HYDROXYDEOXYCHOLIC ACID] as the compound, how does the neuronal differentiation score (ReNCell VM [1]; library: Spectrum) read?
**A.** inactive: 0

**Q.** What about the “dopaminergic neuron differentiation score” value (ReNCell VM [2]; library: Spectrum) of the same compound?
**A.** inactive: 0

**Q.** How did the neuronal differentiation score (ReNCell VM [1]; library: Spectrum) turn out when `C=C1[C@H]2CC[C@@]3(C)[C@H](c4ccoc4)OC(=O)C[C@]13O[C@H]1C[C@H](O)C(C)(C)[C@H](CC(=O)OC)[C@]12C` [3-DEOXY-3beta-HYDROXYANGOLENSIC ACID METHYL ESTER] was run?
**A.** inactive: 0

**Q.** And the “dopaminergic neuron differentiation score” value (ReNCell VM [2]; library: Spectrum)?
**A.** inactive: 0

**Q.** With `O=C1CCC[C@@H]2[C@H]3CCC[N+]4([O-])CCC[C@@H](CN12)[C@@H]34` (some centres undefined) [Oxymatrine] as the compound, how does the neuronal differentiation score (ReNCell VM [1]; library: Phytochemical) read?
**A.** inactive: 1

**Q.** And the “dopaminergic neuron differentiation score” value (ReNCell VM [2]; library: Phytochemical)?
**A.** inactive: 0

**Q.** `CCCN(CCC)CCc1cccc2c1CC(=O)N2` was tested. Which neuronal differentiation score (ReNCell VM [1]; library: Spectrum) did it give?
**A.** inactive: 0

**Q.** And the “dopaminergic neuron differentiation score” value (ReNCell VM [2]; library: Spectrum)?
**A.** inactive: 0

**Q.** What does the source list for `Nc1nc(Cl)nc2c1ncn2[C@@H]1O[C@H](CO)[C@@H](O)[C@H]1O` [2-Chloroadenosine]?
**A.** neuronal differentiation score (ReNCell VM [1]; library: LOPAC): inactive: -3; dopaminergic neuron differentiation score (ReNCell VM [2]; library: LOPAC): inactive: 0

**Q.** With `O=C1NCCN1c1ncc([N+](=O)[O-])s1` [Niridazole] as the compound, how does the neuronal differentiation score (ReNCell VM [1]; library: Prestwick) read?
**A.** inactive: 0

**Q.** And the “dopaminergic neuron differentiation score” value (ReNCell VM [2]; library: Prestwick)?
**A.** inactive: 0

**Q.** Which neuronal differentiation score (ReNCell VM [1]; library: Spectrum) does the source give for `COc1c2ccoc2nc2c(OC)c(OCC(O)C(C)(C)O)ccc12` (centres undefined) here?
**A.** inactive: 0

**Q.** What about the “dopaminergic neuron differentiation score” value (ReNCell VM [2]; library: Spectrum) of the same compound?
**A.** inactive: 0
